Values of other authors in patent US6423697B1, “Intraoral topical anti-inflammatory treatment for relief of migraine, tension-type headache, post-traumatic headache, facial pain, and cervical-muscle spasm” (priority 1999, dated 2002).

Settings: oral administration

time to peak plasma levels: 24 h
Structure (SMILES): COc1ccc2cc([C@H](C)C(=O)O)ccc2c1 [Naproxen, 6-methoxy methyl-2-naphtalene acetic acid]
